Source: the supplement of paper PMC6411743
± gives the standard deviation of the averaged measurements. This is a selection; strong and weak results do not stand in their true shares.

Protein sequences, listed by entry. Tags and fused reporters are not part of them. Lines headed by an entry give the natural chain unless they say otherwise; changes in a name come on top.
UniProt P07741: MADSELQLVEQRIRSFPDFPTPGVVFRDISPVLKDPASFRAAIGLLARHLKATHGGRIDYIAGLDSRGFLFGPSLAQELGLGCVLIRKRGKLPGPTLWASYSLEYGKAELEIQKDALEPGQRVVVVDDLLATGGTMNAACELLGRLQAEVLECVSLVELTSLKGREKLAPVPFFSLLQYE
UniProt P06400: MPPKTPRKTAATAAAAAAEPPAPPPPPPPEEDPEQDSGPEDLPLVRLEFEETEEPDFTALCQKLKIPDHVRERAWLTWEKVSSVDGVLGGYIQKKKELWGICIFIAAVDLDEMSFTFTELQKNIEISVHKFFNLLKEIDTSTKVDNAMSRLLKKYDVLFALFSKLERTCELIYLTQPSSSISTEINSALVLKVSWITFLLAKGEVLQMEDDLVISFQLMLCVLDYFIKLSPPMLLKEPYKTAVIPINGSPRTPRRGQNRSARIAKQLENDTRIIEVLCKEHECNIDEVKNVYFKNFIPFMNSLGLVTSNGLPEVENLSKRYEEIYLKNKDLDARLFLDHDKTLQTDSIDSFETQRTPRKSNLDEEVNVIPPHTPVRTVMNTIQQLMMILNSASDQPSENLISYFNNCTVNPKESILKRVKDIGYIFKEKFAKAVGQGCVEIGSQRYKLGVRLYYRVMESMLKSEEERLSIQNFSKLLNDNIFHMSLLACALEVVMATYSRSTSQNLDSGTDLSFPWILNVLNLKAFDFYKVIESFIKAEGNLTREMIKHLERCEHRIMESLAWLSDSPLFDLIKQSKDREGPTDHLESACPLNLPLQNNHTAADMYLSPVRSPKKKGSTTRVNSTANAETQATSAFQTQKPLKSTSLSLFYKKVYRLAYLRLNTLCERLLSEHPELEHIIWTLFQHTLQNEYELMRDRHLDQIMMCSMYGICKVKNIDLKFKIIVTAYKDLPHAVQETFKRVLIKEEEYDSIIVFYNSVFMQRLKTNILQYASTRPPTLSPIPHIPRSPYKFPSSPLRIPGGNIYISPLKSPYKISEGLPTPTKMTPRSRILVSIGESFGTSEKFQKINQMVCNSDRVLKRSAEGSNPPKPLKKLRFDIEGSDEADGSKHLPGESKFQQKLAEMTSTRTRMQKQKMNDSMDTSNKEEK
UniProt P02786, whole entry, looked up: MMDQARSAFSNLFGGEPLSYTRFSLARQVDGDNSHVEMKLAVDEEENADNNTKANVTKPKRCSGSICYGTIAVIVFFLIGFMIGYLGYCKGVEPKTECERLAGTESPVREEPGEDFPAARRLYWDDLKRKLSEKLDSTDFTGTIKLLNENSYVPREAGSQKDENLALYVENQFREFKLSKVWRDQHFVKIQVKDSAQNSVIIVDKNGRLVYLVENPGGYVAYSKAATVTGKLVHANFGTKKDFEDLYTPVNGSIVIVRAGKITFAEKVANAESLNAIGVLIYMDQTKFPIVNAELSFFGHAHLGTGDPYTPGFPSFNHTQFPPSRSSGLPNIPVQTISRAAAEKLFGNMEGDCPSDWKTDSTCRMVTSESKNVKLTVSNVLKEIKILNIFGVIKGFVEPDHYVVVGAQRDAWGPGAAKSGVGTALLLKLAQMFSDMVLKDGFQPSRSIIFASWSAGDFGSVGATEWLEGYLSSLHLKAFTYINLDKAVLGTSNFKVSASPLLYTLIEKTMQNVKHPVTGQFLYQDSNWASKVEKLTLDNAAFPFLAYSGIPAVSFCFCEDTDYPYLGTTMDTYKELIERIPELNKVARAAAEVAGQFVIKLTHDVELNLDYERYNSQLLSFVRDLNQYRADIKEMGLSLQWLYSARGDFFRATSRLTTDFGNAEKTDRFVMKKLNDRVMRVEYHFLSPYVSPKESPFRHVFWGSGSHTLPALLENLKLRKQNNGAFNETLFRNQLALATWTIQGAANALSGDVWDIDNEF
UniProt P09132: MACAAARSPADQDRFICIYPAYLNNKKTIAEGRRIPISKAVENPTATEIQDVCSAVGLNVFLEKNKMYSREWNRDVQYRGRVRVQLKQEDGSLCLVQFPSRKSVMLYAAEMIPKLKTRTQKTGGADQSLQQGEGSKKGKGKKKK
UniProt P06213, whole entry: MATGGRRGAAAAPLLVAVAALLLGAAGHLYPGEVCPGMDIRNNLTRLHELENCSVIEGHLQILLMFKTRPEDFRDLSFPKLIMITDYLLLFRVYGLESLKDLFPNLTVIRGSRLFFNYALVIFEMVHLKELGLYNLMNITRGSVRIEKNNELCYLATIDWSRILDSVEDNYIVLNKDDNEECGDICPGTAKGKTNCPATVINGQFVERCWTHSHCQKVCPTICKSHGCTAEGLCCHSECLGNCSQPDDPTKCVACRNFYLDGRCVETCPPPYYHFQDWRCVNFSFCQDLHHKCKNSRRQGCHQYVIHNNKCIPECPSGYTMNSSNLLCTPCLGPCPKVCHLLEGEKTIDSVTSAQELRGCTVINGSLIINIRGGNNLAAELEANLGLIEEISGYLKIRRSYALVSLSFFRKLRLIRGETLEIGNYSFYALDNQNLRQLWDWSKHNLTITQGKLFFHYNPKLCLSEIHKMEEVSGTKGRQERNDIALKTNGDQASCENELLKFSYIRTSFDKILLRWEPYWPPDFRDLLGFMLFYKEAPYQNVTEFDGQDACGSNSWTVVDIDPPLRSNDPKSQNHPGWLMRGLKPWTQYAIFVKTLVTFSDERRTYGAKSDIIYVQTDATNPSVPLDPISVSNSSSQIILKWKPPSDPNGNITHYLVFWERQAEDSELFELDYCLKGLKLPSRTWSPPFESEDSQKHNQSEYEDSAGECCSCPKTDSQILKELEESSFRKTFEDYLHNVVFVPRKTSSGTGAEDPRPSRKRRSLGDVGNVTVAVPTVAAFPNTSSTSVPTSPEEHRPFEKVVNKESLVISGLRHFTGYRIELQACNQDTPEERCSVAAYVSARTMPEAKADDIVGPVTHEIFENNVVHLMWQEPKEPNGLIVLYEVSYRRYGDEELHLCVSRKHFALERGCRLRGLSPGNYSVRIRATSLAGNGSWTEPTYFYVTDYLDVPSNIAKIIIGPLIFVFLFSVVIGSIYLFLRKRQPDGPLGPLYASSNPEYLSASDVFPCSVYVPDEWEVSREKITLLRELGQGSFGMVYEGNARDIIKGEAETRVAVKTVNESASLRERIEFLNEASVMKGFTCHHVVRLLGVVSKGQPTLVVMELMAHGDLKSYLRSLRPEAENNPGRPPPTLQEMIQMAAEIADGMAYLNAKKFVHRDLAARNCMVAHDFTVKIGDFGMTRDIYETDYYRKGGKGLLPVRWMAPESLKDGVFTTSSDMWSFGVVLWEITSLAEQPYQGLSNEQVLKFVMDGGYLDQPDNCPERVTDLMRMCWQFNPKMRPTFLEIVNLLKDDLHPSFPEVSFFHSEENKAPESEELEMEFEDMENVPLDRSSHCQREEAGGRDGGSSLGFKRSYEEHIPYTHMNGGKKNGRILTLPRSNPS
UniProt P14625, whole entry: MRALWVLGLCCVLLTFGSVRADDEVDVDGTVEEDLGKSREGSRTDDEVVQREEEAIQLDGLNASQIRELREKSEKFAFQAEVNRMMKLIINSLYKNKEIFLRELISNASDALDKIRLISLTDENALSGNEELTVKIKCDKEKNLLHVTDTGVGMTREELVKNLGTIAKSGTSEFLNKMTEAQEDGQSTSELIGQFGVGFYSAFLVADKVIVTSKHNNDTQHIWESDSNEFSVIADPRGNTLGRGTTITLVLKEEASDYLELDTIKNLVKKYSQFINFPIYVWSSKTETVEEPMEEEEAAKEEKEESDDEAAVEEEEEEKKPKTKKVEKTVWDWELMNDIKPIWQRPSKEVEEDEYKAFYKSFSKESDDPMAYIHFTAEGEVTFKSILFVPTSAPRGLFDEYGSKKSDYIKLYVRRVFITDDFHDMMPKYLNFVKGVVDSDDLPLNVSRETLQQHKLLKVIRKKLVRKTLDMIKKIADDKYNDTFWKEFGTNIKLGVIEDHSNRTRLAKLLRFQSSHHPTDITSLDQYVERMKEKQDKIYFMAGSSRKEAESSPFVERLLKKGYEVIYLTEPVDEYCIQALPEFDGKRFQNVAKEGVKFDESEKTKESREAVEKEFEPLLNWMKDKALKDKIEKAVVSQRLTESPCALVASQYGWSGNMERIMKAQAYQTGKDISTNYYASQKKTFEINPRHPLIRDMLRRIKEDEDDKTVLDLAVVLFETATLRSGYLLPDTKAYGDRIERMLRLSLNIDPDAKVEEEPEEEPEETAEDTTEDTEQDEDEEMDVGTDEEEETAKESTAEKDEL
UniProt P06756, whole entry: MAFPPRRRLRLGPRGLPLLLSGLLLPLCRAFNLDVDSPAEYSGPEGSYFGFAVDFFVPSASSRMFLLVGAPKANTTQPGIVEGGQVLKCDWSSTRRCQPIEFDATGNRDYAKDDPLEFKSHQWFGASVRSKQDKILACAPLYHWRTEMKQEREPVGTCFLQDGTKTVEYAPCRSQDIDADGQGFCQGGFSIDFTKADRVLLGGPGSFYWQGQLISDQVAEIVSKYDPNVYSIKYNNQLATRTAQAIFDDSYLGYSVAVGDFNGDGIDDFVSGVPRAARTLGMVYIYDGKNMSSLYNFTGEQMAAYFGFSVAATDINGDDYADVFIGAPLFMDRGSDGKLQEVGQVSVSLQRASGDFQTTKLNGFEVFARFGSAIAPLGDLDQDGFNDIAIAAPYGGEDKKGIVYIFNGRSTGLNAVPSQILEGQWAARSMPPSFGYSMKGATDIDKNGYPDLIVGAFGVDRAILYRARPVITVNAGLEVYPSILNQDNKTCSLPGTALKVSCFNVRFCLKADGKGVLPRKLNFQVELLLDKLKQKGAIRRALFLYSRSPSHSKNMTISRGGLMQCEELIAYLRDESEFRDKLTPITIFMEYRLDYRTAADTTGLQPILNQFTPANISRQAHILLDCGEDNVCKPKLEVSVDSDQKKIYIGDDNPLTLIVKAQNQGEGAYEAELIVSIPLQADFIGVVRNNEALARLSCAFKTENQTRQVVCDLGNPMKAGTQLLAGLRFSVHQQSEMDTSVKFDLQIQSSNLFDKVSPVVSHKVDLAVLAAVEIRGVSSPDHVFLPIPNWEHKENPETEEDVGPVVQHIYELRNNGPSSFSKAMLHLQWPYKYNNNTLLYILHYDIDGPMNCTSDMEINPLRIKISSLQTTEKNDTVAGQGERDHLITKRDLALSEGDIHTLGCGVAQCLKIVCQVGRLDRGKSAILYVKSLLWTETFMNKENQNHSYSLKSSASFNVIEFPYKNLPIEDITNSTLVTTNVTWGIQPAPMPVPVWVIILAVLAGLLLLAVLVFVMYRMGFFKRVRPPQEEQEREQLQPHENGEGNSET
UniProt P14317: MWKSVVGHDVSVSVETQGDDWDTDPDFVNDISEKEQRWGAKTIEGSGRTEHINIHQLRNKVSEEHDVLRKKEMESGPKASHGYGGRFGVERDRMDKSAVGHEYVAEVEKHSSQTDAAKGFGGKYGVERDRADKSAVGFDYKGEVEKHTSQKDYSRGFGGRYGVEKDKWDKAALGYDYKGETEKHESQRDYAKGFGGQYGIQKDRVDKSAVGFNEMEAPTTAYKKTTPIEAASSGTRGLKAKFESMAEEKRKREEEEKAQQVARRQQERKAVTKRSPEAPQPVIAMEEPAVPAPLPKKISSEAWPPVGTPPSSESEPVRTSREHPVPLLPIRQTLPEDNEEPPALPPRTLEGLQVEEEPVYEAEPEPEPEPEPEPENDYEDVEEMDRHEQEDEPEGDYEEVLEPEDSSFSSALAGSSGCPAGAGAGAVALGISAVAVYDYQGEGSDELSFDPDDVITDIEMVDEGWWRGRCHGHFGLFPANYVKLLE
UniProt P14635, whole entry: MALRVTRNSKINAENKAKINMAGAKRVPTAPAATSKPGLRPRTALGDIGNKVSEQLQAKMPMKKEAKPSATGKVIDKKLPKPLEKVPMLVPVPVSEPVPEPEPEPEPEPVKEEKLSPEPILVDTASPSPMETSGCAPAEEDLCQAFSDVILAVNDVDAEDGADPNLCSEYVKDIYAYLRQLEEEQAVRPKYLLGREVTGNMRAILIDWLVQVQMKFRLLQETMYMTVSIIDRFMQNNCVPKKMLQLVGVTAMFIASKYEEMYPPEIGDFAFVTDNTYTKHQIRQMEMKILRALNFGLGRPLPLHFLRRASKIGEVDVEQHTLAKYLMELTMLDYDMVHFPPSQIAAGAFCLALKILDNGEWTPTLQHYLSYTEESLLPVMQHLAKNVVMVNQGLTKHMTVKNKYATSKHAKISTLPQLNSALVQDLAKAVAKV
UniProt O96011: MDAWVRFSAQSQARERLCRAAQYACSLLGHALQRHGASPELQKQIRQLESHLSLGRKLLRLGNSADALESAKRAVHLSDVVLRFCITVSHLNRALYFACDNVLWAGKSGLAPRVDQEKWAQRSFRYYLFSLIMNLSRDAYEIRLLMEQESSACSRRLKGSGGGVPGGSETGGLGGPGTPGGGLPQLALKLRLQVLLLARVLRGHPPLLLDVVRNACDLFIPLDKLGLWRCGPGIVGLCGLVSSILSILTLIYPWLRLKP

Compound: Nc1ncnc2c1ncn2[C@@H]1O[C@H](COP(=O)(O)OP(=O)(O)NP(=O)(O)O)[C@@H](O)[C@H]1O [adenylyl imidodiphosphate]
Assay: NP40-soluble protein abundance relative to vehicle (solubility fold change) (ratio); higher = more soluble protein in presence of AMP-PNP
Procedure, shortened: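 Jurkat crude lysate prepared with a Dounce homogeniser was treated at eight concentrations spanning 0.1 to 10 mM, 10 min at room temperature then 3 min at 37 °C. Solubilisation with 0.8% NP40 and benzonase and ultracentrifugation preceded TMT labelling of the supernatant for LC-MS/MS. Fold change against the detergent-processed vehicle was determined per replicate from vsn-normalised intensities, across three independent experiments.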

Target	NP40-soluble protein abundance (concentration: 1mM)	NP40-soluble protein abundance (concentration: 2mM)	NP40-soluble protein abundance (concentration: 4mM)	NP40-soluble protein abundance (concentration: 6mM)	NP40-soluble protein abundance (concentration: 8mM)	NP40-soluble protein abundance (concentration: 10mM)
APRT (UniProt P07741)	0.901 ± 0.085	0.787 ± 0.025	0.948 ± 0.12	1.12 ± 0.23	1.13 ± 0.27	1.07 ± 0.21
RB1 (UniProt P06400)	1 ± 0.015	0.995 ± 0.014	1 ± 0.012	0.9931 ± 0.0029	0.9901 ± 0.0085	0.981 ± 0.014
TFRC (UniProt P02786)	0.995 ± 0.06	0.984 ± 0.058	0.971 ± 0.057	1.09 ± 0.072	1.06 ± 0.043	1.08 ± 0.034
CAT (UniProt P04040)	1.01 ± 0.014	0.958 ± 0.04	0.976 ± 0.015	0.956 ± 0.02	0.97 ± 0.029	0.936 ± 0.016
SRP19 (UniProt P09132)	1.03 ± 0.054	1.15 ± 0.17	1.08 ± 0.055	1.11 ± 0.071	1.08 ± 0.021	1.21 ± 0.034
UniProt P16083 and related entries	1.02 ± 0.02	0.982 ± 0.074	0.988 ± 0.034	0.991 ± 0.02	0.993 ± 0.04	0.982 ± 0.052
UniProt P06213-2|P06213	0.995 ± 0.035	1.02 ± 0.045	0.997 ± 0.022	0.954 ± 0.025	0.969 ± 0.022	0.94 ± 0.014
UniProt P10586 and related entries	0.989 ± 0.021	0.9746 ± 0.0047	0.998 ± 0.015	0.99 ± 0.018	0.9966 ± 0.0094	0.98 ± 0.03
HSP90B1 (UniProt P14625)	0.996 ± 0.015	0.9973 ± 0.0081	0.976 ± 0.015	1.04 ± 0.019	0.997 ± 0.02	1.028 ± 0.009
TYMS (UniProt P04818)	0.938 ± 0.03	0.853 ± 0.1	0.908 ± 0.013	0.922 ± 0.029	0.939 ± 0.015	0.874 ± 0.013
UniProt O96020 and related entries	0.993 ± 0.024	1.01 ± 0.029	1.029 ± 0.0031	1.0336 ± 0.00011	1.01 ± 0.04	0.988 ± 0.023
UniProt P06756 and related entries	0.972 ± 0.021	1.02 ± 0.071	0.9964 ± 0.0069	0.987 ± 0.015	0.952 ± 0.015	1.007 ± 0.0064
GLUD1 (UniProt P00367)	0.956 ± 0.02	0.902 ± 0.045	0.909 ± 0.025	0.925 ± 0.018	0.9 ± 0.036	0.876 ± 0.046
HCLS1 (UniProt P14317)	1.03 ± 0.019	1.09 ± 0.073	1 ± 0.025	1.01 ± 0.028	0.967 ± 0.012	0.994 ± 0.052
PLEK (UniProt P08567)	1.052 ± 0.0013	0.996 ± 0.01	1.02 ± 0.014	1.02 ± 0.017	1.04 ± 0.097	1.08 ± 0.066
UniProt P14635 and related entries	1.06 ± 0.029	1.07 ± 0.096	1.06 ± 0.051	1.04 ± 0.018	1.03 ± 0.033	1.03 ± 0.042
UniProt O96011 and related entries	0.923 ± 0.051	0.902 ± 0.023	0.919 ± 0.081	1.03 ± 0.1	1.04 ± 0.065	0.991 ± 0.041

Fetched one by one from above (2):
Target	NP40-soluble protein abundance (concentration: 1mM)	NP40-soluble protein abundance (concentration: 2mM)	NP40-soluble protein abundance (concentration: 4mM)	NP40-soluble protein abundance (concentration: 6mM)	NP40-soluble protein abundance (concentration: 8mM)	NP40-soluble protein abundance (concentration: 10mM)
RB1 (UniProt P06400)	1 ± 0.015	0.995 ± 0.014	1 ± 0.012	0.9931 ± 0.0029	0.9901 ± 0.0085	0.981 ± 0.014
TFRC (UniProt P02786)	0.995 ± 0.06	0.984 ± 0.058	0.971 ± 0.057	1.09 ± 0.072	1.06 ± 0.043	1.08 ± 0.034
